Measurements reported in PubChem BioAssay AID1259308 (NCATS, 2017).

Assay: 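Knock-downs that increase output of a recombinant reporter protein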 (primary screen)
System: human HEK293 embryonic kidney cells stably expressing firefly luciferase (HEK-CMV-Luc2-Hygro)
Knock-down reagent: single siRNA against human genes, 0.8 pmol siRNA per well
Time to read-out: 72 h
Measurement: 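Reporter luminescence and viable-cell signal on separate replicate plates, given as percent of non-targeting control and median/MAD z-scores, plus per-cell luciferase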
Direction: total luciferase, z-score and total luciferase, % of control: higher = more reporter protein produced; luciferase per cell, z-score: higher = more reporter output per viable cell; viable cells, % of control: higher = more viable cells
Call rule: 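Active when the median/MAD z-score for overall luciferase is greater than 3; a gene was taken forward for validation with new siRNAs if at least two of its three siRNAs passed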
Meaning of the calls: active = raised luciferase; inactive = no rise
The whole screen tested about 59,000 reagents; below is a random part of them. About 1,510 of them (2.6%) count as active. 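Calls use total luciferase alone and ignore viability, so some active siRNAs may act by altering cell number.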 Reagents against one gene are numbered here.

| target gene | reagent | total luciferase, z-score | total luciferase, % of control | luciferase per cell, z-score | viable cells, % of control | activity call |
| --- | --- | --- | --- | --- | --- | --- |
| CABLES2 (Cdk5 and Abl enzyme substrate 2) | 1 | -0.95 | 63 | -1.41 | 102 | inactive |
| CABLES2 (Cdk5 and Abl enzyme substrate 2) | 2 | 0.326 | 88.4 | 0.0561 | 97.3 | inactive |
| CABLES2 (Cdk5 and Abl enzyme substrate 2) | 3 | -0.267 | 76.6 | -0.54 | 98.6 | inactive |
| LAMP5 (lysosome associated membrane protein 5) | 1 | 0.162 | 85.1 | 0.732 | 78.4 | inactive |
| LAMP5 (lysosome associated membrane protein 5) | 2 | -0.508 | 71.8 | 0.411 | 72 | inactive |
| LAMP5 (lysosome associated membrane protein 5) | 3 | 0.283 | 87.5 | -0.00466 | 97.9 | inactive |
| ZSCAN5DP (zinc finger and SCAN domain containing 5D pseudogene) | 1 | 0.818 | 98.2 | 0.444 | 97.6 | inactive |
| ZSCAN5DP (zinc finger and SCAN domain containing 5D pseudogene) | 2 | -0.597 | 70 | -0.308 | 84.9 | inactive |
| ZSCAN5DP (zinc finger and SCAN domain containing 5D pseudogene) | 3 | 1.43 | 110 | 1.08 | 92.8 | inactive |
| KLK5 (kallikrein related peptidase 5) | 1 | 0.735 | 96.5 | 0.0394 | 107 | inactive |
| KLK5 (kallikrein related peptidase 5) | 2 | 1.58 | 113 | 1.65 | 82 | inactive |
| KLK5 (kallikrein related peptidase 5) | 3 | 0.925 | 100 | 1.28 | 80 | inactive |
| KRTAP26-1 (keratin associated protein 26-1) | 1 | 3.5 | 151 | 2.31 | 92.3 | active |
| KRTAP26-1 (keratin associated protein 26-1) | 2 | -0.538 | 71.2 | -0.13 | 82.3 | inactive |
| KRTAP26-1 (keratin associated protein 26-1) | 3 | -0.139 | 79.1 | 0.278 | 82.2 | inactive |
| ERCC3 (ERCC excision repair 3, TFIIH core complex helicase subunit) | 1 | -0.944 | 63.1 | -1.3 | 99.4 | inactive |
| ERCC3 (ERCC excision repair 3, TFIIH core complex helicase subunit) | 2 | -1.18 | 58.4 | -1.44 | 95.3 | inactive |
| ERCC3 (ERCC excision repair 3, TFIIH core complex helicase subunit) | 3 | -1.09 | 60.2 | -1.01 | 87.8 | inactive |
| MAP7D1 (MAP7 domain containing 1) | 1 | 3.26 | 147 | 2.93 | 75.8 | active |
| MAP7D1 (MAP7 domain containing 1) | 2 | 0.974 | 101 | 0.229 | 107 | inactive |
| MAP7D1 (MAP7 domain containing 1) | 3 | 0.3 | 87.9 | 0.721 | 81.2 | inactive |
| FCRL2 (Fc receptor like 2) | 1 | -0.343 | 75.1 | 0.259 | 78.3 | inactive |
| FCRL2 (Fc receptor like 2) | 2 | 0.242 | 86.7 | 0.69 | 80.8 | inactive |
| FCRL2 (Fc receptor like 2) | 3 | -0.742 | 67.1 | -0.169 | 78.4 | inactive |
| IFT70A (intraflagellar transport 70A) | 1 | 1.97 | 121 | 2.7 | 66.4 | inactive |
| IFT70A (intraflagellar transport 70A) | 2 | -0.853 | 64.9 | -0.422 | 81.1 | inactive |
| IFT70A (intraflagellar transport 70A) | 3 | -0.237 | 77.2 | -1.03 | 113 | inactive |
| DUSP4 (dual specificity phosphatase 4) | 1 | -1.81 | 45.9 | -1.48 | 75.8 | inactive |
| DUSP4 (dual specificity phosphatase 4) | 2 | 1.39 | 109 | 0.621 | 104 | inactive |
| DUSP4 (dual specificity phosphatase 4) | 3 | -1.87 | 44.7 | -2.46 | 95.5 | inactive |
| FLYWCH2 (FLYWCH family member 2) | 1 | 0.506 | 91.9 | 1.1 | 77 | inactive |
| FLYWCH2 (FLYWCH family member 2) | 2 | 0.484 | 91.5 | 0.76 | 83.7 | inactive |
| FLYWCH2 (FLYWCH family member 2) | 3 | 0.756 | 96.9 | 1.21 | 78.9 | inactive |
| C22orf42 (chromosome 22 open reading frame 42) | 1 | -1.12 | 59.6 | -1.1 | 89 | inactive |
| C22orf42 (chromosome 22 open reading frame 42) | 2 | 0.0991 | 83.9 | -0.278 | 101 | inactive |
| C22orf42 (chromosome 22 open reading frame 42) | 3 | 1.11 | 104 | 0.629 | 98.4 | inactive |
| HCN1 | 1 | -1.78 | 46.6 | -1.59 | 79 | inactive |
| HCN1 | 2 | -0.811 | 65.8 | -0.607 | 86.2 | inactive |
| HCN1 | 3 | -0.315 | 75.6 | -0.788 | 104 | inactive |
| EDA2R (ectodysplasin A2 receptor) | 1 | -0.93 | 63.4 | -0.218 | 75 | inactive |
| EDA2R (ectodysplasin A2 receptor) | 2 | 0.603 | 93.9 | 0.113 | 102 | inactive |
| EDA2R (ectodysplasin A2 receptor) | 3 | -0.597 | 70 | -0.629 | 92.3 | inactive |
| MUC5AC (mucin 5AC, oligomeric mucus/gel-forming) | 1 | 1.56 | 113 | 0.783 | 103 | inactive |
| MUC5AC (mucin 5AC, oligomeric mucus/gel-forming) | 2 | 0.72 | 96.2 | 1.42 | 73.9 | inactive |
| MUC5AC (mucin 5AC, oligomeric mucus/gel-forming) | 3 | -0.971 | 62.6 | -0.791 | 86.1 | inactive |
| EIF2S2 (eukaryotic translation initiation factor 2 subunit beta) | 1 | -2.03 | 41.5 | -1.96 | 77.7 | inactive |
| EIF2S2 (eukaryotic translation initiation factor 2 subunit beta) | 2 | -2.89 | 24.5 | -3.23 | 64 | inactive |
| EIF2S2 (eukaryotic translation initiation factor 2 subunit beta) | 3 | -2.7 | 28.1 | -3.28 | 74.5 | inactive |
| SLC44A2 | 1 | 2.17 | 125 | 1.29 | 99.4 | inactive |
| SLC44A2 | 2 | 0.466 | 91.1 | 0.264 | 95 | inactive |
| SLC44A2 | 3 | -0.551 | 70.9 | 0.176 | 75.7 | inactive |
| SYAP1 (synapse associated protein 1) | 1 | 0.34 | 88.7 | 0.51 | 86.6 | inactive |
| SYAP1 (synapse associated protein 1) | 2 | 0.241 | 86.7 | 0.867 | 77.1 | inactive |
| SYAP1 (synapse associated protein 1) | 3 | -1.36 | 54.8 | -1.26 | 85.5 | inactive |
| FCGR2A (Fc gamma receptor IIa) | 1 | 2.29 | 127 | 1.08 | 107 | inactive |
| FCGR2A (Fc gamma receptor IIa) | 2 | -0.227 | 77.4 | -1.32 | 122 | inactive |
| FCGR2A (Fc gamma receptor IIa) | 3 | 1.38 | 109 | 1.41 | 84.2 | inactive |

An excerpt from above, showing only “total luciferase, % of control”:
LAMP5 (lysosome associated membrane protein 5) #2: 71.8
LAMP5 (lysosome associated membrane protein 5) #3: 87.5
ZSCAN5DP (zinc finger and SCAN domain containing 5D pseudogene) #1: 98.2
ZSCAN5DP (zinc finger and SCAN domain containing 5D pseudogene) #2: 70
